# PubChem BioAssay AID1671190 (National Center for Advancing Translational Sciences (NCATS), 2021)
# Protein sequences, listed by entry. Tags and fused reporters are not part of them. Lines headed by an entry give the natural chain unless they say otherwise; changes in a name come on top.
# UniProt P18054: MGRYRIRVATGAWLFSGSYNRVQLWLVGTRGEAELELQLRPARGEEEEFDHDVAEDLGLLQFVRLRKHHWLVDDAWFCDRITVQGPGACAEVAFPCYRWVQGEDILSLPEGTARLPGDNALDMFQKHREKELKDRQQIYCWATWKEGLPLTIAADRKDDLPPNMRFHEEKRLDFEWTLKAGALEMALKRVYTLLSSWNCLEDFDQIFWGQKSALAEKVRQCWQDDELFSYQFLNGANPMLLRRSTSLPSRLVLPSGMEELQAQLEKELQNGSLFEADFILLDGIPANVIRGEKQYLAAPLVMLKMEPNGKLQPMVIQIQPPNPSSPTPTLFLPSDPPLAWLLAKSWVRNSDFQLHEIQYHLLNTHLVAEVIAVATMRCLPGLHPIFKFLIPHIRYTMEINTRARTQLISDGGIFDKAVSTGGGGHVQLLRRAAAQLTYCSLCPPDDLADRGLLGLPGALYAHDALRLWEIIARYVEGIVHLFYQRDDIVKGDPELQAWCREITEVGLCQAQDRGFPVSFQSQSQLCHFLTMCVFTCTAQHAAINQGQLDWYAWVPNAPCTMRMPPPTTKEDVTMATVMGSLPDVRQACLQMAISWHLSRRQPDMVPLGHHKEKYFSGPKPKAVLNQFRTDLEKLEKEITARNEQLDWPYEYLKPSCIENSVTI
# Out of some 580,000 compounds screened, about 6,100 (1.1%) were called active. This list was built around the results that the source calls inconclusive (neither active nor inactive); the mix of calls is not that of the screen. Calls come from the whole dose curve; as a rule, active = well fitted inhibition curve with a large enough effect; inconclusive = small, poorly fitted or top-dose-only effect, or another doubt; inactive = no such curve, though single readings can be large or run the other way. Where the call is inconclusive, the potency comes from a doubtful curve fit.
# Target: Polyunsaturated fatty acid lipoxygenase ALOX12 (Homo sapiens) (UniProt P18054)
# Experiment: Primary qHTS assay for inhibitors of human arachidonate 12S-lipoxygenase (ALOX12): Round 2
# Conditions: purified 12hLO, xylenol orange hydroperoxide absorbance; series mostly up to 108 µM
# How it was run: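 Purified human 12hLO (150 nM final) in 25 mM Hepes, 0.01% Triton X-100, pH 7.0 was preincubated 15 min at room temperature with compound. Then 40 uM arachidonic acid was added, 30 min. Hydroperoxide was read by Fe-XO absorbance ratio 573/405 nm.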
# Potency is the fitted concentration of half-maximal effect.
row,SMILES,Potency
1,COCCNc1oc(-c2ccc(C)cc2)nc1C#N,"inconclusive: 39.8 µM [inhibitor, partial curve, poor fit]"
2,COc1ccc2c(c1)nc(-c1cccc(Br)c1)c(=O)n2C(c1ccccn1)c1nc2ccccc2[nH]1 (stereo not given),"inconclusive: 100 µM [inhibitor, partial curve, poor fit]"
3,CCOC(=O)c1c(/N=C/c2cc(C)ccc2O)sc2c1CCC2,"inconclusive: 50.1 µM [inhibitor, partial curve, poor fit]"
4,CCn1ncc(C2=NOC(C(=O)NCc3ccc(OC)cc3)C2)c1C (stereo not given),inactive
5,CC(C)n1c(SCC(=O)Nc2nncs2)nnc1C1CC1,inactive
6,CON(C)C(=O)C(NC(=O)c1ccc(F)cc1)C(C)C (stereo not given),"inconclusive: 0.224 µM [inhibitor, full curve, poor fit]"
7,CCc1ccc(N2CC(C)Cn3c2nc2c3c(=O)[nH]c(=O)n2C)cc1 (stereo not given),"inconclusive: 56.2 µM [inhibitor, partial curve, poor fit]"
8,CCN1CC(c2ccccc2)CC2(CCN(C(=O)c3ccc(C)nc3)CC2)C1 (stereo not given),inactive
9,O=C(NCc1ccccc1Cl)C1CCC(=O)N(C2CCCC2)C1 (stereo not given),inactive
10,Cc1cc(C(=O)NCc2nc(-c3cccc(NC(=O)c4ccccc4)c3)oc2C)nc(C)n1,"inconclusive: 44.7 µM [inhibitor, partial curve, poor fit]"
11,CC(=O)N1Cc2cc(C(=O)NCC(F)(F)F)nc(-c3cccc(-c4cc5ccccc5o4)c3)c2[C@H]1CCO,"inconclusive: 79.4 µM [inhibitor, partial curve, poor fit]"
12,Cc1n[nH]c(C)c1CCC(=O)N1CCC(c2nn(C)c(=O)n2C2CCCC2)CC1,inactive
13,CCOC(=O)CNC(=O)Cn1cnc2sc(C)c(S(=O)(=O)N3CCOCC3)c2c1=O,"inconclusive: 0.251 µM [inhibitor, full curve, poor fit]"
14,Cc1ccc(CNCc2ccc(-c3ccc(F)c(Cl)c3)o2)cc1,"inconclusive: 63.1 µM [inhibitor, partial curve, poor fit]"
15,COc1ccc(C(=O)NCCS(=O)(=O)N2CCN(Cc3ccccc3)CC2)cc1,"inconclusive: 14.1 µM [inhibitor, partial curve, poor fit]"
16,Cc1noc(C)c1NC(=O)N(C)C[C@@H]1OCc2cn(nn2)CCCC(=O)N([C@@H](C)CO)C[C@H]1C,"inconclusive: 89.1 µM [inhibitor, partial curve, poor fit]"
17,CCCC(=O)Nc1ccc(Cl)c(NC(=O)c2cc(OCC)c(OCC)c(OCC)c2)c1,"inconclusive: 5.62 µM [inhibitor, full curve, poor fit]"
18,O=C(NC1CC(=O)N(c2ccc(Cl)cc2)C1)N1CCN(C(=O)c2ccco2)CC1 (stereo not given),"inconclusive: 112 µM [inhibitor, single point]"
19,Cc1cccc(C)c1OCC(=O)N/N=C/C=C/c1ccco1,"inconclusive: 44.7 µM [inhibitor, partial curve, poor fit]"
20,C=C(C)CSC1=C(C#N)C(c2ccc(C(C)C)cc2)CC(=O)N1 (stereo not given),"inconclusive: 8.91 µM [inhibitor, partial curve, poor fit]"
21,O=C(Nc1nc(-c2ccccc2)cs1)C1c2ccccc2Oc2ccccc21,inactive
22,O=[N+]([O-])c1cccc(/C=N/n2cnnc2)c1O,inactive

row,SMILES,Potency
1,CCc1c(C(=O)Nc2cc(C)ccc2OC)[nH]c(C)c1C(C)=O,inactive
2,O=C1CC(c2noc(Cc3ccc(F)cc3)n2)CN1c1ccc(F)c(Cl)c1 (stereo not given),inactive
3,Cc1ccc(-c2csc3ncnc(Sc4nnc(C5CC5)o4)c23)cc1,inactive
4,O=C(NCc1ccccc1C(F)(F)F)c1n[nH]c2c1CCCC2,inactive
5,COc1ccc(N2CCN(S(=O)(=O)c3c(C)[nH]c(C)c3C(=O)N3CCCCC3)CC2)cc1,inactive
6,O=C(CSc1nnc(Cc2ccccc2)o1)c1ccc2c(c1)OCO2,"inconclusive: 3.98 µM [inhibitor, full curve, poor fit]"
7,CN1C(=O)Cc2cc(-c3csc(-c4cccc(F)c4)n3)ccc21,"inconclusive: 28.2 µM [inhibitor, partial curve]"
8,Cc1ccccc1CN1C(=O)CSCC1(C)C(=O)NCc1ccccc1 (stereo not given),inactive
9,Cc1cc(Cl)c(S(=O)(=O)N2CCN(c3cccc(C)c3C)CC2)cc1OCC(N)=O,"inconclusive: 1.26 µM [inhibitor, full curve, poor fit]"
10,COc1ccc(CCC(=O)OCC(=O)NC(=O)c2ccc(Cl)cc2)cc1,"inconclusive: 44.7 µM [inhibitor, partial curve, poor fit]"
11,COc1ccc2[nH]cc(CCNC(=O)Nc3ccc(F)cc3)c2c1,"inconclusive: 56.2 µM [inhibitor, partial curve, poor fit]"
12,Cc1csc(CNC(=O)c2scnc2C)n1,"inconclusive: 20 µM [inhibitor, full curve]"
13,Cc1cc(C(C2C(=O)CC(C)(C)CC2=O)C2C(=O)CC(C)(C)CC2=O)cc(C)c1OC(F)F,"inconclusive: 44.7 µM [inhibitor, partial curve, poor fit]"
14,COc1ccc2c(c1)c(=O)c(C(=O)c1ccc(F)cc1)cn2CC(=O)Nc1ccc(F)cc1,"inconclusive: 89.1 µM [inhibitor, single point]"
15,CCOc1cc(N2CCOCC2)c(OCC)cc1NC(=O)CN1C(=O)NC(Cc2ccccc2)C1=O (stereo not given),inactive
16,O=C(O)CCC(=O)Nc1ccc(C(=O)OCC(=O)c2ccc(Cl)cc2Cl)cc1,"inconclusive: 2.82 µM [inhibitor, full curve, poor fit]"
17,Cn1cc(CC(=O)N2CCCc3ncc(C(=O)NCCN4CCCC4)cc32)c2ccccc21,inactive
18,Cc1cc(=O)[nH]c(=S)n1-c1ccccc1,"inconclusive: 39.8 µM [inhibitor, partial curve]"
19,O=C1NC2(CCN(Cc3ccc(OC(F)(F)F)cc3)C2)OCc2ccccc21 (stereo not given),inactive
20,Cc1nc(N)nc(C)c1CC(=O)N1CC2(CCNCC2)CC1C(=O)O (stereo not given),"inconclusive: 20 µM [inhibitor, full curve]"
21,Cc1cc(-c2cc(C(=O)NCc3ccccc3)on2)nc(S(C)(=O)=O)n1,inactive
22,Cc1ccc(/C=C/C(=O)c2ccc(O)c(CCCl)c2)c(C)c1,"inconclusive: 15.8 µM [inhibitor, full curve]"

row,SMILES,Potency
1,CCNC(=O)NC(=O)COC(=O)c1ccc(COc2ccc3c(C)cc(=O)oc3c2)cc1,inactive
2,CN1CCN(S(=O)(=O)c2cccc(C(=O)N(C)Cc3c(F)cccc3Cl)c2)CC1,"inconclusive: 56.2 µM [inhibitor, partial curve, poor fit]"
3,O=C(Nc1ccccc1O)c1cc(-c2ccncc2)nc2ccccc12,"inconclusive: 31.6 µM [inhibitor, partial curve]"
4,Cc1cc(C)cc(NC(=O)C(Sc2nnc(-c3ccoc3C)o2)c2ccccc2)c1 (stereo not given),"inconclusive: 50.1 µM [inhibitor, single point]"
5,COc1ccc2cc(-c3cn4c(n3)sc3cc(F)ccc34)c(=O)oc2c1,"inconclusive: 44.7 µM [inhibitor, partial curve, poor fit]"
6,O=C(O)C1CCCN(S(=O)(=O)c2cccs2)C1 (stereo not given),inactive
7,Cc1ccccc1-n1c(SC(C)C(=O)c2ccc(F)c(F)c2)nnc1N1CCOCC1 (stereo not given),"inconclusive: 7.94 µM [inhibitor, full curve, poor fit]"
8,O=C(c1cccc([N+](=O)[O-])c1)N1CCCC(C(=O)N2CCCCCC2)C1 (stereo not given),"inconclusive: 35.5 µM [inhibitor, single point]"
9,O=C(C1CCN(C2CCN(C/C=C/c3ccccc3)CC2)CC1)N1CCOCC1,inactive
10,O=C1COc2ccc(C(=O)CSc3nnc(-c4cccs4)n3Cc3ccccc3)cc2N1,inactive
11,N#CC1=C(N)Oc2c(c(=O)[nH]c3ccccc23)C1c1cccc(Cl)c1 (stereo not given),"inconclusive: 2.82 µM [inhibitor, full curve, poor fit]"
12,C#CCSc1nc(=O)c2cccnc2n1-c1ccc(C)cc1,"inconclusive: 112 µM [inhibitor, single point]"
13,CCc1nnc(NS(=O)(=O)c2ccc(NC(=S)NC(=O)/C=C/c3ccc([N+](=O)[O-])cc3)cc2)s1,"inconclusive: 44.7 µM [inhibitor, partial curve, poor fit]"
14,O=C(Nc1ccc(N2CCN(C(=O)c3cccs3)CC2)c(Cl)c1)c1ccco1,inactive
15,Oc1ccc(-c2nc(-c3ccc(Br)s3)cs2)cc1,"inconclusive: 35.5 µM [inhibitor, partial curve, poor fit]"
16,S=c1[nH]nc(COc2cccc3ccccc23)n1Cc1ccccc1,"inconclusive: 89.1 µM [inhibitor, partial curve, poor fit]"
17,c1ccc2c(OCCCN3CCCCCC3)cccc2c1,"inconclusive: 0.447 µM [inhibitor, full curve, poor fit]"
18,O=C(CNCCc1ccccc1)Nc1ccc(C(=O)N2CCCCC2)cc1,"inconclusive: 0.501 µM [inhibitor, full curve, poor fit]"
19,Cc1ccc(C(=O)NNC(=O)c2cc3ccccc3cc2O)cc1,"inconclusive: 31.6 µM [inhibitor, partial curve, poor fit]"
20,CN(C)c1ccc(C(c2ccc(N(C)C)cc2)C(O)c2ccccc2)cc1 (stereo not given),"inconclusive: 12.6 µM [inhibitor, full curve, poor fit]"
21,COc1ccccc1CN1C[C@@H]2C[C@@H](c3cccc(C)n3)N3CCC[C@@]23C1=O,"inconclusive: 35.5 µM [inhibitor, partial curve, poor fit]"

# Part of the list above, with bars between the fields:
row | SMILES | Potency
4 | Cc1cc(C)cc(NC(=O)C(Sc2nnc(-c3ccoc3C)o2)c2ccccc2)c1 (stereo not given) | inconclusive: 50.1 µM [inhibitor, single point]
5 | COc1ccc2cc(-c3cn4c(n3)sc3cc(F)ccc34)c(=O)oc2c1 | inconclusive: 44.7 µM [inhibitor, partial curve, poor fit]
6 | O=C(O)C1CCCN(S(=O)(=O)c2cccs2)C1 (stereo not given) | inactive
7 | Cc1ccccc1-n1c(SC(C)C(=O)c2ccc(F)c(F)c2)nnc1N1CCOCC1 (stereo not given) | inconclusive: 7.94 µM [inhibitor, full curve, poor fit]
8 | O=C(c1cccc([N+](=O)[O-])c1)N1CCCC(C(=O)N2CCCCCC2)C1 (stereo not given) | inconclusive: 35.5 µM [inhibitor, single point]
9 | O=C(C1CCN(C2CCN(C/C=C/c3ccccc3)CC2)CC1)N1CCOCC1 | inactive
10 | O=C1COc2ccc(C(=O)CSc3nnc(-c4cccs4)n3Cc3ccccc3)cc2N1 | inactive
11 | N#CC1=C(N)Oc2c(c(=O)[nH]c3ccccc23)C1c1cccc(Cl)c1 (stereo not given) | inconclusive: 2.82 µM [inhibitor, full curve, poor fit]
12 | C#CCSc1nc(=O)c2cccnc2n1-c1ccc(C)cc1 | inconclusive: 112 µM [inhibitor, single point]
13 | CCc1nnc(NS(=O)(=O)c2ccc(NC(=S)NC(=O)/C=C/c3ccc([N+](=O)[O-])cc3)cc2)s1 | inconclusive: 44.7 µM [inhibitor, partial curve, poor fit]
14 | O=C(Nc1ccc(N2CCN(C(=O)c3cccs3)CC2)c(Cl)c1)c1ccco1 | inactive
15 | Oc1ccc(-c2nc(-c3ccc(Br)s3)cs2)cc1 | inconclusive: 35.5 µM [inhibitor, partial curve, poor fit]
16 | S=c1[nH]nc(COc2cccc3ccccc23)n1Cc1ccccc1 | inconclusive: 89.1 µM [inhibitor, partial curve, poor fit]
17 | c1ccc2c(OCCCN3CCCCCC3)cccc2c1 | inconclusive: 0.447 µM [inhibitor, full curve, poor fit]
18 | O=C(CNCCc1ccccc1)Nc1ccc(C(=O)N2CCCCC2)cc1 | inconclusive: 0.501 µM [inhibitor, full curve, poor fit]
19 | Cc1ccc(C(=O)NNC(=O)c2cc3ccccc3cc2O)cc1 | inconclusive: 31.6 µM [inhibitor, partial curve, poor fit]
20 | CN(C)c1ccc(C(c2ccc(N(C)C)cc2)C(O)c2ccccc2)cc1 (stereo not given) | inconclusive: 12.6 µM [inhibitor, full curve, poor fit]
